{"sequences": {"note": "Chains of the proteins cited; added tags and fusions are not shown.", "UniProt P08621": "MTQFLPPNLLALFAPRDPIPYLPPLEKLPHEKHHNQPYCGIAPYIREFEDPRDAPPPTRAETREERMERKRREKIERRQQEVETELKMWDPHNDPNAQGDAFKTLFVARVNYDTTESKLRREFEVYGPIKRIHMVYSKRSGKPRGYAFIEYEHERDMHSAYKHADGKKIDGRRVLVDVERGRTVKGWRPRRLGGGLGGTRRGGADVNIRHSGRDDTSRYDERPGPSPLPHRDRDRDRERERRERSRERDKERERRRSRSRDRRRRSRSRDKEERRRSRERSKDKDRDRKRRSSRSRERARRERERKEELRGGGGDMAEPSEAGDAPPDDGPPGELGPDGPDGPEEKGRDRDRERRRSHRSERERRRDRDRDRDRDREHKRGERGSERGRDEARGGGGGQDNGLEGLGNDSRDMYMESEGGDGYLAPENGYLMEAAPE"}, "source": "paper PMC8213729", "binders": {"B1": {"name": "heterogeneous ribonucleoprotein M (hnRNPM) (protein, UniProt P52272 1-730)", "chain": "MAAGVEAAAEVAATEIKMEEESGAPGVPSGNGAPGPKGEGERPAQNEKRKEKNIKRGGNRFEPYANPTKRYRAFITNIPFDVKWQSLKDLVKEKVGEVTYVELLMDAEGKSRGCAVVEFKMEESMKKAAEVLNKHSLSGRPLKVKEDPDGEHARRAMQKVMATTGGMGMGPGGPGMITIPPSILNNPNIPNEIIHALQAGRLGSTVFVANLDYKVGWKKLKEVFSMAGVVVRADILEDKDGKSRGIGTVTFEQSIEAVQAISMFNGQLLFDRPMHVKMDERALPKGDFFPPERPQQLPHGLGGIGMGLGPGGQPIDANHLNKGIGMGNIGPAGMGMEGIGFGINKMGGMEGPFGGGMENMGRFGSGMNMGRINEILSNALKRGEIIAKQGGGGGGGSVPGIERMGPGIDRLGGAGMERMGAGLGHGMDRVGSEIERMGLVMDRMGSVERMGSGIERMGPLGLDHMASSIERMGQTMERIGSGVERMGAGMGFGLERMAAPIDRVGQTIERMGSGVERMGPAIERMGLSMERMVPAGMGAGLERMGPVMDRMATGLERMGANNLERMGLERMGANSLERMGLERMGANSLERMGPAMGPALGAGIERMGLAMGGGGGASFDRAIEMERGNFGGSFAGSFGGAGGHAPGVARKACQIFVRNLPFDFTWKMLKDKFNECGHVLYADIKMENGKSKGCGVVKFESPEVAERACRMMNGMKLSGREIDVRIDRNA"}}, "biological_target": "U1 small nuclear ribonucleoprotein 70 kDa (human (endogenous in A549)) (UniProt P08621)", "test": "co-IP; A549 cell lysate (20 mM Tris-HCl pH 8.6, 100 mM NaCl, 20 mM KCl, 1.5 mM MgCl2, 0.5% NP-40); 3 mg total protein rotated with antibodies at 4 °C overnight, captured on Protein A/G agarose, immunoblotting", "note": "Results are given in words; binding and its absence hold for the method and conditions named. Binding seen in cells or lysates may run through a third protein. Some results given as binding are weak or reduced against the parent protein; the word gives no strength.", "data": [{"binder": "B1", "values": [{"measurement": "binding", "value": "binds"}]}]}
